Results taken from US8318668B2 (Trustees of Tufts College, priority 2005, dated 2012).
Not every detail of the peptide structures is certain; ends, links or a residue may be inferred.

The chains behind the UniProt entries cited, without tags or fusion partners. Residues count along the entry.
UniProt P43220, 24-463: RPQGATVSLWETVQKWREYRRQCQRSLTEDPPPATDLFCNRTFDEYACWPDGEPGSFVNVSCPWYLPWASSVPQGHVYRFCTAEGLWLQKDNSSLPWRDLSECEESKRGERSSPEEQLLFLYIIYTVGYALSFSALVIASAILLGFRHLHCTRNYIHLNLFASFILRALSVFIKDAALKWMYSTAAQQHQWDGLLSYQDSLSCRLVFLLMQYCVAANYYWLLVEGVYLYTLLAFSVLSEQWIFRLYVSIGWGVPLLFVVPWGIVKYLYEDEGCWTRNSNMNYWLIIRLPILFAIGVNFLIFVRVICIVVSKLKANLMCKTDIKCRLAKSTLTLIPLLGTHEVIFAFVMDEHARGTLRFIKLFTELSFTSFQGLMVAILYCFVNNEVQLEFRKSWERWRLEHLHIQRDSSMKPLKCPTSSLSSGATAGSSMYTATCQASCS

Molecular target: human GLP-1 receptor (Homo sapiens, UniProt P43220)
Conditions: peptide concentration 300 nM

CC[C@H](C)[C@H](NC(=O)[C@H](Cc1ccccc1)NC(=O)[C@H](CCC(=O)O)NC(=O)[C@H](CCCCN)NC(=O)[C@H](C)NC(=O)[C@H](C)NC(=O)[C@H](CCC(N)=O)NC(=O)CNC(=O)[C@H](CCC(=O)O)NC(=O)[C@H](CC(C)C)NC(=O)[C@H](Cc1ccc(O)cc1)NC(=O)[C@H](CO)NC(=O)[C@H](CO)NC(=O)[C@@H](NC(=O)[C@H](CC(=O)O)NC(=O)[C@H](CO)NC(=O)[C@@H](NC(=O)[C@H](Cc1ccccc1)NC(=O)[C@@H](NC(=O)CNC(=O)[C@@H](NC(=O)[C@H](C)NC(=O)[C@@H](N)Cc1c[nH]cn1)C(C)(C)C)[C@@H](C)O)[C@@H](C)O)C(C)C)C(=O)N[C@@H](C)C(=O)N[C@@H](Cc1c[nH]c2ccccc12)C(=O)N[C@@H](CC(C)C)C(=O)N[C@H](C(=O)N[C@@H](CCCCN)C(=O)NCC(=O)N[C@@H](CCCNC(=N)N)C(N)=O)C(C)C [TPA144]
amount of GLP-1 receptor activation as measured by cAMP production: the same
